Molecules are shown by their SMILES.

The test system of this series is rat middle cerebral artery occlusion (MCAO) stroke model. Put plainly: Rat middle cerebral artery occlusion (MCAO) stroke model, different doses. The class given is in vivo. The procedure:
By rat middle cerebral artery occlusion (MCAO) stroke model (also called cerebral ischemia model), the therapeutic effect of the compound of the present invention on ischemic stroke in SD rats at different doses was studied. Male SD rats were selected and induced anesthesia by 2-3.0% isoflurane. The middle cerebral artery was blocked by the thread plug method, resulting in rat ischemia model; the ischemic rats were placed at room temperature and kept their body temperature being 37° C. 60 minutes after ischemia onset, the rats were scored by Bederson neurobehavioral scale to determine whether the model was successfully made. 90 min after ischemia onset, the thread plug was pulled out for reperfusion. […] After 24 h of reperfusion, the animals were scored by NSS scale to evaluate neurological deficit. And then the animals were dissected, brains were collected and subjected to TTC stain. […] The percentage of the weight of the infarct tissue based on the weight of the whole brain was regarded as the infarct range (%), and the inhibition rate (%) of each drug treatment group was calculated based on the infarct range.

Compound `CCCCC1OC(=O)c2ccccc21` (centres unmarked) [Positive drug, butylphthalide, reference compound] had a Whole brain weight (positive drug butylphthalide 10 mg/kg, tail vein injection, 24 h of reperfusion) of 1.446 ± 0.145 g. Also, where the note is “positive drug group butylphthalide 10 mg/kg, scored 60 minutes after ischemia onset (before administration)”, the Bederson score is 2.929 ± 0.267.

The values are drawn from patent publication US11440909B2, “10H-phenothiazine ferroptosis inhibitor as well as the preparative method and the use thereof” (CHENGDU HENGHAO INVESTMENT CO. LIMITED, priority 2018, dated 2022).
